This experiment addresses Glutathione S Transferase. Nature of the experiment: ELISA, coated antigen.

No constants are given. Whether binding was seen depends on the method and setting.

B1: Nb-F3 (VHH)
VHH: QVQLVESGGGLVQPGGSLRLSCAASGTEDGRLLTLGGSWFRQAPGQGLEAVAAIGAGDRGGATYYADSVKGRFTISRDNSKNTLYLQMNSLRAEDTAVYYCTALYERQPQLAATKVARKWGQGTLVTVSS
Consider B1, for which the binding result is given as “no binding”.

B2: Nb-V1 (VHH)
VHH: QVQLVESGGGLVQPGGSLRLSCAASGNSAEDRLYNSYTWFRQAPGQGLEAVAAISSHFSAGLTYYADSVKGRFTISRDNSKNTLYLQMNSLRAEDTAVYYCEITSHASHNDAWSTPRTVWGQGTLVTVSS
Turning to B2, the binding result is “no binding”.
